# Data taken from patent publication US20230192830A1.
# Chains of the proteins cited; added tags and fusions are not shown. Lines headed by an entry give the natural chain unless they say otherwise; changes in a name come on top.
# UniProt P10636: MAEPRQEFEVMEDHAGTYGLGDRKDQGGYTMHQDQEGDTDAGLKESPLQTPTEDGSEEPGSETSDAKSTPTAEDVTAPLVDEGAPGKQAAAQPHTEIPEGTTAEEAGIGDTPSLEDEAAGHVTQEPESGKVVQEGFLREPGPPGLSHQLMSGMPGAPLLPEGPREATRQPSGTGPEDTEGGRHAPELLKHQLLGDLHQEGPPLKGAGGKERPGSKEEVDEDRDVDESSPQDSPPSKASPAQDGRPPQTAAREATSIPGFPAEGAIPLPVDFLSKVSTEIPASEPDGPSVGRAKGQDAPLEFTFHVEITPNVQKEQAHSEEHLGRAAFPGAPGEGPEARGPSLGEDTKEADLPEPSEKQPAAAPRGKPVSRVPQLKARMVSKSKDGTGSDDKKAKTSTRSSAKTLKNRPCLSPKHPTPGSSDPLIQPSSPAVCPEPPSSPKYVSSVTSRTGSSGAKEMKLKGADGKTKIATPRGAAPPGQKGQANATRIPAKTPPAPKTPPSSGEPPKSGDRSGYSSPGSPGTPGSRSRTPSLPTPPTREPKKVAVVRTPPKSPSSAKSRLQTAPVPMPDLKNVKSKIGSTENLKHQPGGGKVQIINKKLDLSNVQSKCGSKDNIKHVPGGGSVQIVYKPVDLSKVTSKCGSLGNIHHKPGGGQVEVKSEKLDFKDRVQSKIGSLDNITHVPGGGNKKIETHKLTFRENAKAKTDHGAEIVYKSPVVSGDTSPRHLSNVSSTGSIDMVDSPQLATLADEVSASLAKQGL
# Results are given in words; binding and its absence hold for the method and conditions named. Some binding calls cover weakened binding; strength is not graded here.
# B1: V0030 (antibody, mouse IgG1, V domains shown)
# VH: QVQLQQPGTELVKPGASVKLSCKASGYTFTSYWMHWVKQRPGQGLEWIGNIYPSNGGTNYNEKFKNKATLTVDKSSSTASMQLSSLTSEDSAVYYCARSSVVARDYAMDYWGQGTSVTVSS
# VL: DVLMTQTPLSLPVSLGDQASISCRSSQNIVHSNGNTYLEWYLQKPGQSPKLLIYKVSNRFSGVPDRFSGSGSGTDFTLKISRVEAEDLGVYYCFQGSHVPYTFGGGTKLEIK
# Target: pathological tau in human Alzheimer's Disease (AD) brain tissue sections (human) (UniProt P10636)
# Test: IHC, cryo AD brain sections; non-AD sections graded +/++
binder,measurement,value
B1,binding,binds
